# Test results reported in PubChem BioAssay AID504648 (National Center for Advancing Translational Sciences (NCATS), 2011).
# Screen size: about 390,000 compounds; about 610 (0.16%) were called active. Inconclusive results, whose numbers are uncertain, are shown with a selection of clear calls. The call rests on the fitted dose curve; in most records, active means well fitted inhibition curve with a large enough effect; inconclusive means small, poorly fitted or top-dose-only effect, or effect the other way, or another doubt; inactive means no such curve, though single readings can be large or run the other way. Where the call is inconclusive, the potency comes from a doubtful curve fit.
# Assay: Nrf2 qHTS screen for inhibitors: counterscreen for cytotoxicity
# Conditions: A549 ARE-Fluc cells, CellTiter-Fluor viability, 18-24 h; series mostly up to 46 µM
# In short: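 Cytotoxicity counterscreen: CellTiter-Fluor fluorescence was measured in A549 ARE_Fluc cells after 18-24 h of compound exposure in a concentration series. The subsequent BugLite luminescent read reports ARE-luciferase activity.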
# Potency means the concentration at half of the fitted maximal effect.
row,Structure (SMILES),Potency
1,Cc1ccc(NNC(=O)C(O)(c2cccc(C(F)(F)F)c2)c2cccc(C(F)(F)F)c2)cc1,"inconclusive: 29.1 µM [falling, single point]"
2,O=C(CSc1nnc(CNc2ccccc2)o1)c1ccc2c(c1)OCCO2,"inconclusive: 18.4 µM [falling, partial curve, poor fit]"
3,O=C(NC1(C(F)(F)F)NC(=O)N(CCc2ccccc2)C1=O)c1ccc(Cl)cc1 (configuration not stated),inactive
4,CCn1ccc2c(OCC(=O)Nc3ccccc3C(F)(F)F)cccc2c1=O,inactive
5,O=C(CSc1cccc2cccnc12)N1CCCC1,"inconclusive: 32.6 µM [falling, partial curve, poor fit]"
6,CNC(=O)c1cccc2nc3ccccc3nc12,"inconclusive: 4.61 µM [falling, partial curve]"
7,CC(C)[C@H](CO)N(Cc1cccc(F)c1)c1nc(Nc2cccc(Cl)c2)c2ncn(C(C)C)c2n1,"inconclusive: 25.9 µM [falling, single point]"
8,Cc1cc(N2CCN(Cc3cn(C)nc3-c3cccc(Cl)c3)CC2)cc(C)n1,"inconclusive: 23.1 µM [falling, single point]"
9,C/C(Sc1nnc(Cc2ccccc2)o1)=C(\O)c1ccccc1,"inconclusive: 29.1 µM [activator, partial curve, poor fit]"
10,CC(=O)Nc1nc(C)c(-c2csc(Nc3cccc(C(C)=O)c3)n2)s1,"inconclusive: 11.6 µM [falling, partial curve, poor fit]"
11,Cc1ccc(-c2ccc(SCC(=O)NCC3CCCO3)nn2)cc1 (configuration not stated),"inconclusive: 2.06 µM [falling, partial curve, poor fit]"
12,C/C(=N\OC(=O)Nc1ccc(Cl)cc1)c1ccc(F)c(F)c1,inactive
13,Cc1cc(C)n(-c2nnc(Nc3ccc(C)c(Cl)c3)c3ccccc23)n1,inactive
14,COc1cc(CNC(C)(C)CO)cc(Br)c1OCc1ccc(Cl)cc1,"inconclusive: 7.31 µM [activator, partial curve, poor fit]"
15,O=C(c1cccn1-c1nnc(N2CCCC2)s1)N1CCN(c2ccc(Cl)cc2)CC1,inactive
16,O=C(c1ccc(Cl)c(S(=O)(=O)N2CCOCC2)c1)N1CCc2ccccc2C1,inactive
17,O=C(NS(=O)(=O)c1ccccc1[N+](=O)[O-])c1ccccc1,inactive
18,Nc1c(N2CCCC2)cc(Cl)c2nonc12,"inconclusive: 29.1 µM [falling, single point]"
19,CC(C)[C@H](NC(=O)c1ccccc1Cl)C(=O)OCc1cc([N+](=O)[O-])cc2c1OCOC2,inactive
20,COc1cccc(/C=N/Nc2ccc(S(=O)(=O)Nc3ccccc3C(=O)O)cc2[N+](=O)[O-])c1O,"inconclusive: 23.1 µM [falling, partial curve, poor fit]"
21,COc1ccc(Cn2c(C(=O)O)c(CNCCc3cc(OC)ccc3OC)c3ccc(C)cc32)cc1,"inconclusive: 16.4 µM [falling, single point]"
22,O=c1oc2ccccc2cc1-c1csc(NN=C2CCCC2)n1,"inconclusive: 7.31 µM [activator, partial curve, poor fit]"
23,COc1ccc([C@H]2[C@H](C(=O)OC(C)(C)C)N3N=Cc4ccccc4C3C23C(=O)c2ccccc2C3=O)cc1OC (some centres not stated),"inconclusive: 23.1 µM [falling, single point]"

row,Structure (SMILES),Potency
1,O=C(Nc1ccc(C#Cc2ccccc2)cc1)C1CC1,"inconclusive: 16.4 µM [falling, single point]"
2,CCOc1cc(/C=C/C(=O)Nc2ccc(C(=O)NCCN(CC)CC)cc2)ccc1OCC(C)C,"inconclusive: 29.1 µM [falling, single point]"
3,CC1=Nc2cc(C(=O)NCCCN3CCOCC3)ccc2Sc2c(C)ccc(C)c21,"inconclusive: 25.9 µM [falling, partial curve, poor fit]"
4,O=C(NCCOc1ccccc1)c1ccc2c(c1)S(=O)(=O)c1cc(Cl)ccc1C2=O,inactive
5,O=[N+]([O-])c1cc(N=Nc2ccc3ccccc3c2)ccc1O,"inconclusive: 18.4 µM [falling, single point]"
6,CCCN(CC(=O)Nc1ccccc1OC)CC(=O)c1c(N)n(Cc2ccccc2)c(=O)n(C)c1=O,inactive
7,Cc1ccc(C(=O)NCCc2cc3ccc(C)c(C)c3[nH]c2=O)cc1[N+](=O)[O-],inactive
8,Cc1ccc(N(C(=O)CCCC(=O)Nc2ccccn2)C(C(=O)NC2CCCC2)c2ccc(O)cc2)cc1C (configuration not stated),"inconclusive: 11.6 µM [falling, partial curve, poor fit]"
9,COC(=O)c1scc2c(=O)cc(C(F)(F)F)[nH]c12,"inconclusive: 20.6 µM [activator, partial curve]"
10,COc1ccc(Cn2c(=O)c3cccnc3n(Cc3cccc(F)c3)c2=O)cc1,"inconclusive: 23.1 µM [activator, partial curve, poor fit]"
11,CCOC(=O)c1c(C)oc2ncnc(Nc3ccc(OC)c(OC)c3)c12,inactive
12,CCC(C(=O)OCC(=O)Nc1c(C)n(C)n(-c2ccccc2)c1=O)c1ccccc1 (configuration not stated),"inconclusive: 4.61 µM [falling, single point]"
13,COc1ccc(/C=N/Nc2ccc([N+](=O)[O-])cc2)cc1O,inactive
14,Cc1ccc(N=C2NC(=O)/C(=C/C=C/c3ccco3)S2)cc1C,"inconclusive: 18.4 µM [falling, partial curve, poor fit]"
15,O=C(O)CN1C(=O)/C(=C/c2ccc(N3CCCCC3)o2)SC1=S,"inconclusive: 25.9 µM [falling, single point]"
16,C/C=C1\COC(C(=O)NCCCN2CCCC2=O)(C(F)(F)F)C=C1C=C(C)C (configuration not stated),inactive
17,O=C(NCCOc1ccccc1Cl)c1cccc2c1C(=O)c1ccc(Cl)cc1S2(=O)=O,"inconclusive: 29.1 µM [falling, single point]"
18,NC(=O)C1CCN(Cc2nc3cc(C(F)(F)F)ccc3c(=O)[nH]2)CC1,"inconclusive: 6.51 µM [activator, partial curve, poor fit]"
19,COc1ccc(C(=O)O/N=C(\N)c2ccc(Cl)cc2)cc1,inactive
20,O=C(c1cc2nc(-c3ccco3)cc(C(F)(F)F)n2n1)N1CCN(c2ccc(F)cc2)CC1,"inconclusive: 29.1 µM [falling, partial curve, poor fit]"
21,CCc1ccc(OCC(=O)NC(NC(=S)Nc2ccc(Cl)cc2)C(Cl)(Cl)Cl)cc1 (configuration not stated),"inconclusive: 29.1 µM [falling, single point]"
22,Cc1cc(C(=O)O)ccc1N/C=C1\CCCC(C)C1=O (configuration not stated),inactive
23,CCOC(=O)c1c(C)nn(-c2ccc(NC(=O)/C=C/C(=O)O)cc2)c1C,inactive

row,Structure (SMILES),Potency
1,Cc1ccccc1N=C/C=C1\N(C)c2ccccc2C1(C)C,"inconclusive: 29.1 µM [falling, single point]"
2,Cc1cc(N2CCOCC2)nc2ccc(NC(=O)CCC(=O)N3CCCC(C)C3)cc12 (configuration not stated),"inconclusive: 29.1 µM [activator, single point]"
3,CCOC(=O)c1c(NC(=O)COc2ccc(C)cc2C(C)(C)C)sc2c1CCC(C)C2 (configuration not stated),inactive
4,COCCCNC(=O)C(C#N)c1nc2ccccc2nc1N1CCCC1 (configuration not stated),"inconclusive: 32.6 µM [activator, partial curve, poor fit]"
5,Cc1ccc2nc(/C(C#N)=C\c3ccc(N4CCOCC4)o3)[nH]c2c1,"inconclusive: 20.6 µM [falling, single point]"
6,CC(C)[C@H](NC(=O)c1ccc([N+](=O)[O-])cc1Cl)C(=O)N1CCN(C/C=C/c2ccccc2)CC1,"inconclusive: 18.4 µM [falling, single point]"
7,CCOC(=O)c1ccc(N2C(=O)c3[nH]nc(-c4ccc(OCC)cc4)c3C2c2cccs2)cc1 (configuration not stated),inactive
8,COc1ccc(CNC(=O)c2c(O)c3ccccc3n(C)c2=O)cc1,inactive
9,C[n+]1ccccc1COc1ccc(C(C)(C)C)cc1,"inconclusive: 14.6 µM [falling, partial curve, poor fit]"
10,COc1cc([N+](=O)[O-])cc(/C=N/NC(=O)C(C)Nc2ccccc2C)c1O (configuration not stated),"inconclusive: 16.4 µM [falling, partial curve, poor fit]"
11,CC(C)OCCCNC(=O)CN1C(=O)c2cccc3cccc1c23,"inconclusive: 23.1 µM [activator, partial curve, poor fit]"
12,CCCCN1C(=O)c2ccccc2NC1c1ccc(OC)c(COc2ccc(NC(C)=O)cc2)c1 (configuration not stated),inactive
13,O=c1oc2cccnc2n1CCS(=O)(=O)c1ccc(F)cc1,inactive
14,O=C(N/N=C/c1ccc(-c2cccc(C(F)(F)F)c2)o1)c1ccccc1Br,"inconclusive: 29.1 µM [falling, single point]"
15,CC1=C(C(=O)OC2CCCCC2)C(c2ccco2)C2=C(CC(C)(C)CC2=O)N1 (configuration not stated),inactive
16,COc1ccccc1C(CNC(=O)c1cccc(NS(=O)(=O)c2ccc(Br)cc2)c1)N(C)C (configuration not stated),"inconclusive: 1.84 µM [falling, full curve, poor fit]"
17,Cc1cccc(OCCn2c(NC(=O)c3ccco3)nc3ccccc32)c1,inactive
18,Cc1c2c(n3c(nc4ccccc43)c1C#N)N(CCN1CCOCC1)CC2,"inconclusive: 1.46 µM [activator, full curve, poor fit]"
19,CCOc1ccc(NC(=O)CN(C)C(=O)CCCOc2ccc(Cl)c(C)c2)cc1OCC,"inconclusive: 29.1 µM [falling, single point]"
20,O=S(=O)(c1ccc(Br)cc1)c1nnn2c1nc(NCc1ccc3c(c1)OCO3)c1sccc12,inactive
21,CCOC(=O)c1cc2sccc2n1CC(=O)N1c2ccccc2CC1C (configuration not stated),"inconclusive: 13 µM [falling, partial curve, poor fit]"

# Nothing new here: two of the compounds above.
row,Structure (SMILES),Potency
11,CC(C)OCCCNC(=O)CN1C(=O)c2cccc3cccc1c23,"inconclusive: 23.1 µM [activator, partial curve, poor fit]"
12,CCCCN1C(=O)c2ccccc2NC1c1ccc(OC)c(COc2ccc(NC(C)=O)cc2)c1 (configuration not stated),inactive
